Measured values as given in paper PMC10560259.
Results are given in words; binding and its absence hold for the method and conditions named. Binding seen in cells or lysates may run through a third protein. These calls come from enrichment with a bait or labelling near it, and not all partners need be listed.

Protein sequences, listed by entry. Tags and fused reporters are not part of them.
UniProt O94763: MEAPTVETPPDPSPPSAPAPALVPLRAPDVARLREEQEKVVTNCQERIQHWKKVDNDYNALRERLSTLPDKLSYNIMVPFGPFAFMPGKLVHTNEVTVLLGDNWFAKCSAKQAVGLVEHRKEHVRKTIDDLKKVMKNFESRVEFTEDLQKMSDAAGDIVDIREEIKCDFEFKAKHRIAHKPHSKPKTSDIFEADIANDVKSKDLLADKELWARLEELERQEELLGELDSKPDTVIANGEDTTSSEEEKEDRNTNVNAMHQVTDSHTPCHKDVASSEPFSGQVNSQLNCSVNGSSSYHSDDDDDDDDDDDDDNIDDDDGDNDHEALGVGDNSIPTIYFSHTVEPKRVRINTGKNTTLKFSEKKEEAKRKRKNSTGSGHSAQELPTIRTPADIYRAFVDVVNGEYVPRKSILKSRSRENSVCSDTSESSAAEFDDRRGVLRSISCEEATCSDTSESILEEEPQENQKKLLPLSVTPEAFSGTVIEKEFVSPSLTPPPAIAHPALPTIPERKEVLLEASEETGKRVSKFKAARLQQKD
UniProt Q13263: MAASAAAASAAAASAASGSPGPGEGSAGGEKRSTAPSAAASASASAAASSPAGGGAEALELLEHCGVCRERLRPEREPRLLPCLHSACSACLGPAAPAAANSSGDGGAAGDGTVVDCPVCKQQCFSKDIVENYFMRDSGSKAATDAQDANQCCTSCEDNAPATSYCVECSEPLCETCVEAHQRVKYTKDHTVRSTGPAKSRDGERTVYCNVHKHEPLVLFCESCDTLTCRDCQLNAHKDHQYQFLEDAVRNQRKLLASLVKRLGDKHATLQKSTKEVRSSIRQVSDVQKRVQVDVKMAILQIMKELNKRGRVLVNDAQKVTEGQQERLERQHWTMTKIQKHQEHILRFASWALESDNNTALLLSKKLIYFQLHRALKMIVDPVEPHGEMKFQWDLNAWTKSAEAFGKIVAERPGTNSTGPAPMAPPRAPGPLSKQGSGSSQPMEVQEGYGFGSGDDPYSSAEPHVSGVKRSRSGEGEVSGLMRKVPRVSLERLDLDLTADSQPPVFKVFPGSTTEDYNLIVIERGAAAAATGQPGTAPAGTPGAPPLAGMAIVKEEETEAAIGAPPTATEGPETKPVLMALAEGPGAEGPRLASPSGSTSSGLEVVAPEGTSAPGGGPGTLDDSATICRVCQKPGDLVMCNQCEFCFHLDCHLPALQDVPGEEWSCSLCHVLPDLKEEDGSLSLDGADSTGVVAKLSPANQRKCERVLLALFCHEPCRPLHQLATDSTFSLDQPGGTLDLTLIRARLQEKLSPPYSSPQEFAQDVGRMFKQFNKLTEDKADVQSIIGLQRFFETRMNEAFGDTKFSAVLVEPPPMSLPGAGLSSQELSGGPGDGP
UniProt P45974: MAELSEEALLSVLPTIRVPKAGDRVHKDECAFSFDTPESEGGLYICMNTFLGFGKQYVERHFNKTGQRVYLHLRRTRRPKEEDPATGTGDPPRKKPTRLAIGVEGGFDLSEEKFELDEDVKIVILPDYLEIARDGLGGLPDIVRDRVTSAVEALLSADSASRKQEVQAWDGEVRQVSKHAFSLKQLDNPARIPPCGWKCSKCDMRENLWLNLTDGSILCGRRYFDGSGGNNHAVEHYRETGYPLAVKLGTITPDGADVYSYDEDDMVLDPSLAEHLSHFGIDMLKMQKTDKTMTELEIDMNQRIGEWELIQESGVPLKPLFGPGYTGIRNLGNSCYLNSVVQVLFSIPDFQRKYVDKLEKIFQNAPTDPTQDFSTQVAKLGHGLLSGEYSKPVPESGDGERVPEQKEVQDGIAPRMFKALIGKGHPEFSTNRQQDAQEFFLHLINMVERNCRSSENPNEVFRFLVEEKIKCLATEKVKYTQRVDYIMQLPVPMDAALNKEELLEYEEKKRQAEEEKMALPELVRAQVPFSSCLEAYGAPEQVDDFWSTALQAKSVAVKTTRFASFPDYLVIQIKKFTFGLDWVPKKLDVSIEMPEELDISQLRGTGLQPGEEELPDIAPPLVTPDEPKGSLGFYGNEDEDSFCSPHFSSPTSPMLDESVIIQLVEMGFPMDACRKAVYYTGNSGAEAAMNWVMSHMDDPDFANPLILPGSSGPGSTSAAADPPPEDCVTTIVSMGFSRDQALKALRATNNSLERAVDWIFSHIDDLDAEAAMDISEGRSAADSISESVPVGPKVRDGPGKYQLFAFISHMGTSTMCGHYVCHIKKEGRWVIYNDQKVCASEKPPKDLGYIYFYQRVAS
UniProt Q93009: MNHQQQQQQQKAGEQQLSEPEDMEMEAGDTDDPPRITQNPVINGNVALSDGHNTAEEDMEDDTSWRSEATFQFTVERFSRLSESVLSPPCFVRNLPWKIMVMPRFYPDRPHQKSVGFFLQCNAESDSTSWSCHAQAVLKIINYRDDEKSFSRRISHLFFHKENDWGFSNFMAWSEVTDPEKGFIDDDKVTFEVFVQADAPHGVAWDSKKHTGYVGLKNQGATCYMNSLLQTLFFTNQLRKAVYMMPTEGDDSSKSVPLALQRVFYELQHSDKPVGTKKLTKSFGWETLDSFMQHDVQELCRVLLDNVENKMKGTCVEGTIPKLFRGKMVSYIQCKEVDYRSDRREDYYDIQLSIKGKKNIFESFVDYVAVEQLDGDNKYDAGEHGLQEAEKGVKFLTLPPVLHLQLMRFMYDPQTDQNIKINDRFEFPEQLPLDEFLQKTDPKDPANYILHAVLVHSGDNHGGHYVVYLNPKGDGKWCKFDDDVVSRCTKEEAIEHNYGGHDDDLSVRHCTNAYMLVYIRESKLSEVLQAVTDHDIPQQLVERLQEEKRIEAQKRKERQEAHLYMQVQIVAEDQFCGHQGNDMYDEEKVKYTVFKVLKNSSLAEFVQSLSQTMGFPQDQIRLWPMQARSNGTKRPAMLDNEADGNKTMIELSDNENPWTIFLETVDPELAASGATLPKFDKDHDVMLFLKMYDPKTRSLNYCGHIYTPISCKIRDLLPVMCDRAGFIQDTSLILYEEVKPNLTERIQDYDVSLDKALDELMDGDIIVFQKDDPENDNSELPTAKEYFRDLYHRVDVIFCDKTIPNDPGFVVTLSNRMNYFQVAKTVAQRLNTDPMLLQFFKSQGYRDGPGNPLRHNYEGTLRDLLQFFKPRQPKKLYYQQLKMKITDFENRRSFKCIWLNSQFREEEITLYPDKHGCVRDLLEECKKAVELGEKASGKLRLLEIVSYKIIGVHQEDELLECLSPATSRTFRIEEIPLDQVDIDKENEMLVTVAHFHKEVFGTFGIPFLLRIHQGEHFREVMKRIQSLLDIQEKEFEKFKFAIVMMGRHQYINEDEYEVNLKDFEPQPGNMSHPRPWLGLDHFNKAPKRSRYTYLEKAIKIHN

Molecular target: unconventional prefoldin RPB5 interactor (URI), His-tagged, expressed in HEK293T (UniProt O94763)
Assay: affinity purification with mass spectrometry; HEK293T cells transfected with His-URI plasmid, anti-His immunoprecipitation, gel cutting, LC-MS/MS

Substance	binding
TRIM28, endogenous in HEK293T (from UniProt Q13263 1-835)	binds
USP5, endogenous in HEK293T (from UniProt P45974 1-858)	binds
USP7, endogenous in HEK293T (from UniProt Q93009 1-1102)	binds
